This is one part of the list.
What was measured:
Assay in all cases: log2 fold change, soluble protein after heating vs DMSO (PISA); higher = thermal stabilisation; K562 cells, 10 uM, 30 min; active = over 0.2 and 3.5 SD of the protein, either way, in both replicates (recomputed)
[1] = compound: NC(=O)Nc1cc(-c2cccc(F)c2)sc1C(=O)N[C@H]1CCCNC1
Outline: (§1)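 K562 cells at 2×10^6 cells/mL were treated with 10 μM compound for 30 min. Aliquots were heated for 3 min across 48°C-58°C, pooled, and extracted in PBS with 0.5% NP-40 at 4°C; soluble protein was the supernatant after 21,000xg for 90 min. Soluble protein was quantified by TMTpro 16plex LC-MS/MS with channel sums equalised, and reported as log2 fold change in thermal stability against DMSO controls, with values from duplicates.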

Protein sequences, listed by entry. Tags and fused reporters are not part of them. Lines headed by an entry give the natural chain unless they say otherwise; changes in a name come on top.
UniProt O00273: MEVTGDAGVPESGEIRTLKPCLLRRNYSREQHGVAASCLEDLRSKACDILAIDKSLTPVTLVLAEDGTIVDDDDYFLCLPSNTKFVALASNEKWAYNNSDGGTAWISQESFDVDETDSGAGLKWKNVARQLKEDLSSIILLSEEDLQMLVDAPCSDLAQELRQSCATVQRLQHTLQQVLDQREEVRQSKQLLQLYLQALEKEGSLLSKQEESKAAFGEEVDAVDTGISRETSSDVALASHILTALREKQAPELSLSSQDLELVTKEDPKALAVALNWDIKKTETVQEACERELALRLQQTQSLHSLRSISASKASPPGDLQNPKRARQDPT
UniProt Q92841: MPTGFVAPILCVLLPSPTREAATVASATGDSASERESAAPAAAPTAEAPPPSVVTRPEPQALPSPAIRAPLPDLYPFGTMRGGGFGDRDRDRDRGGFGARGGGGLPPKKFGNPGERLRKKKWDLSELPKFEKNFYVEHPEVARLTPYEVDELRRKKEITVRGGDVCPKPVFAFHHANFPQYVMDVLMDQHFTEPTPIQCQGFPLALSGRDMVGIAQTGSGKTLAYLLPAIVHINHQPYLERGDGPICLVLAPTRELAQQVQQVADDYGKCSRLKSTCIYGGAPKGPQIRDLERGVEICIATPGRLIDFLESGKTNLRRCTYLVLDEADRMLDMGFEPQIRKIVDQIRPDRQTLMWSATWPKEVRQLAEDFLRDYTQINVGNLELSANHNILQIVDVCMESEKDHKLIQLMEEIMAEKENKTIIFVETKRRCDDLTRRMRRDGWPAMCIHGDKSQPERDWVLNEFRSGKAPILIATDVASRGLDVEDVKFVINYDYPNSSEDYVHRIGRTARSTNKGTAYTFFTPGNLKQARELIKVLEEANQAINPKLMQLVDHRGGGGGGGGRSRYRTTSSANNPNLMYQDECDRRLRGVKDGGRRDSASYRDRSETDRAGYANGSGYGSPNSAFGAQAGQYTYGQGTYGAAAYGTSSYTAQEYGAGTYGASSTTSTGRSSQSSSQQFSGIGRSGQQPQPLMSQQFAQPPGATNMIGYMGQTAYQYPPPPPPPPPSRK
UniProt Q9Y394: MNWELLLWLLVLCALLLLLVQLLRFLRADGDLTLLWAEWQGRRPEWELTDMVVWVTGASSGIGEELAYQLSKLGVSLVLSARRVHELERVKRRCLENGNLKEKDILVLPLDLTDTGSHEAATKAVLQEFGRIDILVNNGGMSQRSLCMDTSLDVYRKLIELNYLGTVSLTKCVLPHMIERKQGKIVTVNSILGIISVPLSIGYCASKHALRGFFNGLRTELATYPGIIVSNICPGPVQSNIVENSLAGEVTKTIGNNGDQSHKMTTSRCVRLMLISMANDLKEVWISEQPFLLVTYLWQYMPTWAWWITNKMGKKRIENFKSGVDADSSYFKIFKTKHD
UniProt P35659: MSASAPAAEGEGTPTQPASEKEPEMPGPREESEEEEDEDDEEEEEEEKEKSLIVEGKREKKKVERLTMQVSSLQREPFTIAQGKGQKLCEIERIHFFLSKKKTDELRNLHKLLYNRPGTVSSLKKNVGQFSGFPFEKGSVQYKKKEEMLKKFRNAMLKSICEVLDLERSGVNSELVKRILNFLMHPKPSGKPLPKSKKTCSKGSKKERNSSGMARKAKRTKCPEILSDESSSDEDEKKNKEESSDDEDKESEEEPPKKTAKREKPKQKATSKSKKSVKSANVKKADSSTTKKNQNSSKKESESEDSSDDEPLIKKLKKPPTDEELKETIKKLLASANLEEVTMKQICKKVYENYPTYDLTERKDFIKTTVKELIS
UniProt Q9NY93: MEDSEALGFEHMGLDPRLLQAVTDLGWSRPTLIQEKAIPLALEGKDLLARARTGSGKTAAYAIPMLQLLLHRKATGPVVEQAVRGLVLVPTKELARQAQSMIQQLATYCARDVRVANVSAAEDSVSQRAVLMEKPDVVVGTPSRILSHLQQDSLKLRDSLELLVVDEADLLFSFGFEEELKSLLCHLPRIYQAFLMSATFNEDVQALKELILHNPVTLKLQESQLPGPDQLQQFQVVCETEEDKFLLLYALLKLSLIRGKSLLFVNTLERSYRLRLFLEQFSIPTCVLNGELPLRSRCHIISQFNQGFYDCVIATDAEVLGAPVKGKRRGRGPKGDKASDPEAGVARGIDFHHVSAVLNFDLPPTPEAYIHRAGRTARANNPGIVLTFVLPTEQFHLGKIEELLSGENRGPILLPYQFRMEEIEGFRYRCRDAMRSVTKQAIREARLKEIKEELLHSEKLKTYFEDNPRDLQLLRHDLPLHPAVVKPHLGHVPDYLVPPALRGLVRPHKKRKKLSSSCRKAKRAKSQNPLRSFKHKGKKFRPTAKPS
UniProt Q96GQ7: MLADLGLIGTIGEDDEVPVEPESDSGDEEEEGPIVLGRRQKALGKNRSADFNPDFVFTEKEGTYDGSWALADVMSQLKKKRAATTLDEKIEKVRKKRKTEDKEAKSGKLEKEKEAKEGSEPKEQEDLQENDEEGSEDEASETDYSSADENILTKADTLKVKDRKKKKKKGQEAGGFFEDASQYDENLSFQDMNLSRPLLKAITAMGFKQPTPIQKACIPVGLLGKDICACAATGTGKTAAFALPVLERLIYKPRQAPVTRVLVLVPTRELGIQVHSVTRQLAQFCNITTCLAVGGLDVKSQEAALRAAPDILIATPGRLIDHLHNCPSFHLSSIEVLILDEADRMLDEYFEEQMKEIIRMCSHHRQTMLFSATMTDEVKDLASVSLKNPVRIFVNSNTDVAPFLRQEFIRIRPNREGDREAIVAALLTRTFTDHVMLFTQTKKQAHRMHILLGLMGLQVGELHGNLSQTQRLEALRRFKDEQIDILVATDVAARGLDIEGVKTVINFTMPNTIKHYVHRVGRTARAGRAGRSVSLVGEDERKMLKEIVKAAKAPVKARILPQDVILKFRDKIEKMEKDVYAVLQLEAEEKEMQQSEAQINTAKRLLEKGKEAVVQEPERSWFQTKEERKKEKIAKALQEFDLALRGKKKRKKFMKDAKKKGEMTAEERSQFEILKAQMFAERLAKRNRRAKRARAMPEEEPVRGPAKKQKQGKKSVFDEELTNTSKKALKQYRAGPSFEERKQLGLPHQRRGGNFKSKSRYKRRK
UniProt Q9Y2L1: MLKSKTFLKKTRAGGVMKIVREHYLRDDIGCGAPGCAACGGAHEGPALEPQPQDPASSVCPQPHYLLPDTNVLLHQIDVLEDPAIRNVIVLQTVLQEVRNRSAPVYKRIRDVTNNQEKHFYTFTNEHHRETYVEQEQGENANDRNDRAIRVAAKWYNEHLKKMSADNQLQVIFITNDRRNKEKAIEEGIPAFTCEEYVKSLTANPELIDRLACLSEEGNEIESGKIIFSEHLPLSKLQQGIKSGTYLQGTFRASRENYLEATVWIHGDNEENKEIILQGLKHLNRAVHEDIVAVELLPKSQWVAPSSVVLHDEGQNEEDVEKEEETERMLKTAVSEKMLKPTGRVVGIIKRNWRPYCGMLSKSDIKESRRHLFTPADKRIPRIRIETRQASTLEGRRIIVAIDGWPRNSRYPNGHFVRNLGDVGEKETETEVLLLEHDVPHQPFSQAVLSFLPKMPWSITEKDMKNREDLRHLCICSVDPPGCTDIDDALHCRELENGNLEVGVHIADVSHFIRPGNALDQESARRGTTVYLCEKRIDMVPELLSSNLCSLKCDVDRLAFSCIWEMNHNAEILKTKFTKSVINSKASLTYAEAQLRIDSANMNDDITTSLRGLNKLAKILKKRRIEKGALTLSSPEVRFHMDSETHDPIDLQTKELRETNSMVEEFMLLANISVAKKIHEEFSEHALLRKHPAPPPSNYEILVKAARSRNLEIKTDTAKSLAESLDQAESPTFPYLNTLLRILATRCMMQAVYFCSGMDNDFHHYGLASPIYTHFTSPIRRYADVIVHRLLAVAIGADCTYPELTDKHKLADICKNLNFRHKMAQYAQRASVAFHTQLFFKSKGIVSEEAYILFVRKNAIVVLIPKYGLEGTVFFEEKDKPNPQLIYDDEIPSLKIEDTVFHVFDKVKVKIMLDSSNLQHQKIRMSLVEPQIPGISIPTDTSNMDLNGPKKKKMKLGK
UniProt Q86SQ9: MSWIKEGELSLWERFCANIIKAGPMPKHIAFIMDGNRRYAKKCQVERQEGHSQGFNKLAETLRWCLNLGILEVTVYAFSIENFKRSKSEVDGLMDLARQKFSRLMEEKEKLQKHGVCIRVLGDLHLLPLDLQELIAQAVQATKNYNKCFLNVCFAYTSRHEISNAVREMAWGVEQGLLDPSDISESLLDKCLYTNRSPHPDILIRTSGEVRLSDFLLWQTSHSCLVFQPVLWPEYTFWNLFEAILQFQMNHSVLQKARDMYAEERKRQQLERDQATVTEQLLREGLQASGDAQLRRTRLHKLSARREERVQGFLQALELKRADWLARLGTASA
UniProt P00374: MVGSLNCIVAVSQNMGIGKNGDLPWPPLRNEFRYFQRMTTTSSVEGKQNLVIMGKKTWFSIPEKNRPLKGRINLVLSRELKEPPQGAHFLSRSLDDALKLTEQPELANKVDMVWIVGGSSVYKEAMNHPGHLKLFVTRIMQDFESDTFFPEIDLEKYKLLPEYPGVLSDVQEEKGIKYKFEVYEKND
UniProt O15121: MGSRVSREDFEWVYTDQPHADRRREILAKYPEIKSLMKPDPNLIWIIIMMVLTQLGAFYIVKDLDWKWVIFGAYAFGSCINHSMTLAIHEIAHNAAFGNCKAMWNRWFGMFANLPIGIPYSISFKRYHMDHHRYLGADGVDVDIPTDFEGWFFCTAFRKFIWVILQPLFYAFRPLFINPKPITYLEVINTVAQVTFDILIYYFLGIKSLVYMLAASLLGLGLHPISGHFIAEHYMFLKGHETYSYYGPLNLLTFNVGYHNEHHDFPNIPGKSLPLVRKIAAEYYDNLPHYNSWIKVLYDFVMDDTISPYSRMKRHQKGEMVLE
UniProt Q9NR28: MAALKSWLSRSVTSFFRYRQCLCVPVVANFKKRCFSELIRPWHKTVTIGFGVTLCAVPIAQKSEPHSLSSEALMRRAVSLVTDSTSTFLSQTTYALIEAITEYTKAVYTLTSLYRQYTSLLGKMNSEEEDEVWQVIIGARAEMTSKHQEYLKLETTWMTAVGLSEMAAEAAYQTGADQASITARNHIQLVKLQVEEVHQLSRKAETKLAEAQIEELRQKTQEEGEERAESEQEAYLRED
UniProt Q15398: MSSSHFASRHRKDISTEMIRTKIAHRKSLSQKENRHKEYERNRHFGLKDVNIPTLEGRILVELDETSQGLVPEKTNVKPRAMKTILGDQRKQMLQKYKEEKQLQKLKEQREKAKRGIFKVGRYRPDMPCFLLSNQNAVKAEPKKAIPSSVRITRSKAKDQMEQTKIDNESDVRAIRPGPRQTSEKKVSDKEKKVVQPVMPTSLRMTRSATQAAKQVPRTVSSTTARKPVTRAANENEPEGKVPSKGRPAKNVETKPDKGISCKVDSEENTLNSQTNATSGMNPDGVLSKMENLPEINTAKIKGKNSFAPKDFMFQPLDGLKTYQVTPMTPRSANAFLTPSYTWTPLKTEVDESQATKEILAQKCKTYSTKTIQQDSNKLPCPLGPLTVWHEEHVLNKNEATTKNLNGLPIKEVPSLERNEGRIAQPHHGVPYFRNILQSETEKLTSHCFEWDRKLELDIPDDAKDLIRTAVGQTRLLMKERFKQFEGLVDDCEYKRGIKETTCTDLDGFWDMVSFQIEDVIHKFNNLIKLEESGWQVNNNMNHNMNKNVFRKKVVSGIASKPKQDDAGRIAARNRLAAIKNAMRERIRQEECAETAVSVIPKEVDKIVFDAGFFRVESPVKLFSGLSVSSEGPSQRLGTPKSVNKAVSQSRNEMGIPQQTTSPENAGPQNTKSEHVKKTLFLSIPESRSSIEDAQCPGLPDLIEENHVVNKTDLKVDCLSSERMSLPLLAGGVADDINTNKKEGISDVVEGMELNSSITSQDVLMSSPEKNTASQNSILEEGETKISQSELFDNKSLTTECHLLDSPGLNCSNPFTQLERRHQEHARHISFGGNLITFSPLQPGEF
UniProt Q8IWF6: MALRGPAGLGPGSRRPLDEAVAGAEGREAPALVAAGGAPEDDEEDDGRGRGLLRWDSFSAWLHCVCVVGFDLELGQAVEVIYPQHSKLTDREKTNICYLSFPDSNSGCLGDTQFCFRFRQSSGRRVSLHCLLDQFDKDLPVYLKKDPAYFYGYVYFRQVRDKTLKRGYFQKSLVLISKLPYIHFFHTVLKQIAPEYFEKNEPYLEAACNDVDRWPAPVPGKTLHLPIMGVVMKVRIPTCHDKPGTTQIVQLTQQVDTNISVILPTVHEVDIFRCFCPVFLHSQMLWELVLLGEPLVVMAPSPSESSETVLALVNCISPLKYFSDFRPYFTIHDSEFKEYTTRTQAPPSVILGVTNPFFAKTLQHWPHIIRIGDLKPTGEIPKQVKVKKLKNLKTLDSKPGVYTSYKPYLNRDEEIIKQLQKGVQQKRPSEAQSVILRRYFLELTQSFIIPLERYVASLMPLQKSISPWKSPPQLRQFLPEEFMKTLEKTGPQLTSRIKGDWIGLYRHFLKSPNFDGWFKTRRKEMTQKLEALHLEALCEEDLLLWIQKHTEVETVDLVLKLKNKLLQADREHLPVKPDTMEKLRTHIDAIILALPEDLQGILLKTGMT

[2] = compound: NC(=O)c1cnc(N[C@@H]2CCCC[C@@H]2N)nc1Nc1cccc(-n2nccn2)c1
Outline: as §1

[3] = compound: NC1(c2ccc(-c3nc4ccn5c(=O)[nH]nc5c4cc3-c3ccccc3)cc2)CCC1
Outline: as §1

[4] = compound: NCC(=O)Nc1ccc(-n2nc(C(F)(F)F)cc2-c2ccc3c(ccc4ccccc43)c2)cc1
Outline: as §1

entinostat = compound: Nc1ccccc1NC(=O)c1ccc(CNC(=O)OCc2cccnc2)cc1 [entinostat]
Outline: as §1

vorinostat = compound: O=C(CCCCCCC(=O)Nc1ccccc1)NO [vorinostat]
Outline: as §1

citarinostat = compound: O=C(CCCCCCNC(=O)c1cnc(N(c2ccccc2)c2ccccc2Cl)nc1)NO [citarinostat]
Outline: as §1

silmitasertib = compound: O=C(O)c1ccc2c(c1)nc(Nc1cccc(Cl)c1)c1ccncc12 [silmitasertib]
Outline: as §1

[5] = compound: O=C1NC(=O)C(c2cnc3ccccn23)=C1c1cn2c3c(cc(F)cc13)CN(C(=O)N1CCCCC1)CC2
Outline: as §1

[6] = compound: c1cc(OCCN2CCCCC2)cc(-c2n[nH]c3ccc(-c4nnc[nH]4)cc23)c1
Outline: as §1

Measured: log2 fold change

DFFA (UniProt O00273)
inactive: [1] 0.024 | [2] -0.034 | [3] 0.03 | [4] 0.024 | entinostat 0.024 | vorinostat -0.008 | citarinostat -0.025 | silmitasertib -0.014 | [5] -0.023 | [6] 0.005

DHRS3 (UniProt O75911)
inactive: [1] -0.032 | [2] -0.047 | [3] -0.081 | [4] -0.06 | entinostat 0.05 | vorinostat -0.084 | citarinostat 0.024 | silmitasertib 0.009 | [5] 0.046 | [6] -0.06

DHPS (UniProt P49366)
inactive: [1] 0.01 | [2] 0.051 | [3] 0.014 | [4] 0.053 | entinostat -0.045 | vorinostat 0.04 | citarinostat 0.022 | silmitasertib -0.013 | [5] 0.08 | [6] -0.026

DDX17 (UniProt Q92841)
inactive: [1] -0.05 | [2] 0.013 | [3] -0.071 | [4] -0.069 | entinostat 0.024 | vorinostat 0.036 | citarinostat 0.035 | silmitasertib -0.039 | [5] -0.083 | [6] -0.072

DDX19A (UniProt Q9NUU7)
inactive: [1] 0.044 | [2] 0.005 | [3] -0.06 | [4] 0.009 | entinostat 0.038 | vorinostat 0.027 | citarinostat 0.027 | silmitasertib -0.017 | [5] -0.07 | [6] -0.068

DDT (UniProt P30046)
inactive: [1] -0.004 | [2] 0.008 | [3] -0.014 | [4] 0.039 | entinostat -0.006 | vorinostat -0.02 | citarinostat 0.056 | silmitasertib -0.064 | [5] -0.105 | [6] -0.044

DDX1 (UniProt Q92499)
inactive: [1] 0.079 | [2] -0.021 | [3] -0.024 | [4] 0.032 | entinostat 0.015 | vorinostat 0.012 | citarinostat 0.015 | silmitasertib 0.036 | [5] 0.211 | [6] -0.088

DHRS7 (UniProt Q9Y394)
inactive: [1] 0.057 | [2] 0.033 | [3] 0.017 | [4] 0.035 | entinostat 0.032 | vorinostat -0.063 | citarinostat 0.015 | silmitasertib -0.028 | [5] -0.111 | [6] -0.036

DEK (UniProt P35659)
inactive: [1] -0.028 | [2] -0.028 | [3] -0.066 | [4] -0.053 | entinostat 0.111 | vorinostat 0.081 | citarinostat 0.127 | silmitasertib 0.006 | [5] -0.06 | [6] 0.019

DCXR (UniProt Q7Z4W1)
inactive: [1] -0.005 | [2] -0.034 | [3] 0.021 | [4] -0.001 | entinostat -0.049 | vorinostat -0.034 | citarinostat 0.029 | silmitasertib -0.002 | [5] -0.019 | [6] -0.015

Two entries drawn at random from the list so far:
DHRS7 (UniProt Q9Y394)
inactive: [1] 0.057 | [2] 0.033 | [3] 0.017 | [4] 0.035 | entinostat 0.032 | vorinostat -0.063 | citarinostat 0.015 | silmitasertib -0.028 | [5] -0.111 | [6] -0.036

DCXR (UniProt Q7Z4W1)
inactive: [1] -0.005 | [2] -0.034 | [3] 0.021 | [4] -0.001 | entinostat -0.049 | vorinostat -0.034 | citarinostat 0.029 | silmitasertib -0.002 | [5] -0.019 | [6] -0.015

Next records

DDX5 (UniProt P17844)
inactive: [1] -0.139 | [2] -0.032 | [3] -0.21 | [4] -0.135 | entinostat 0.067 | vorinostat 0.073 | citarinostat 0.072 | silmitasertib -0.088 | [5] -0.158 | [6] -0.039

DMAC2L (UniProt Q99766)
inactive: [1] 0.055 | [2] -0.032 | [3] -0.038 | [4] -0.087 | entinostat 0.052 | vorinostat -0.058 | citarinostat 0.036 | silmitasertib -0.017 | [5] -0.046 | [6] 0.017

DDB1 (UniProt Q16531)
inactive: [1] 0.027 | [2] -0.025 | [3] -0.024 | [4] -0.004 | entinostat -0.022 | vorinostat -0.021 | citarinostat 0.02 | silmitasertib -0.002 | [5] -0.018 | [6] -0.03

DMAC2 isoform 4 (UniProt Q9NW81)
inactive: [1] 0.023 | [2] 0.03 | [3] -0.076 | [4] 0.004 | entinostat -0.073 | vorinostat 0.16 | citarinostat 0.085 | silmitasertib -0.013 | [5] -0.036 | [6] -0.076

DDX56 (UniProt Q9NY93)
inactive: [1] -0.025 | [2] 0.1 | [3] -0.029 | [4] 0.172 | entinostat -0.091 | vorinostat -0.034 | citarinostat -0.139 | silmitasertib 0.067 | [5] 0.288 | [6] 0.029

DDX27 (UniProt Q96GQ7)
inactive: [1] 0.002 | [2] 0.04 | [3] 0.198 | [4] 0.123 | entinostat -0.106 | vorinostat -0.039 | citarinostat -0.103 | silmitasertib 0.087 | [5] 0.326 | [6] -0.218

DIS3 (UniProt Q9Y2L1)
inactive: [1] -0.053 | [2] -0.052 | [3] -0.181 | [4] -0.083 | entinostat 0.104 | vorinostat 0.096 | citarinostat 0.117 | silmitasertib 0.014 | [5] -0.069 | [6] 0.058

DHDDS isoform 2 (UniProt Q86SQ9)
inactive: [1] 0.009 | [2] -0.003 | [3] 0.033 | [4] -0.042 | entinostat 0.003 | vorinostat -0.039 | citarinostat -0.005 | silmitasertib -0.042 | [5] 0.064 | [6] 0.003

DDRGK1 (UniProt Q96HY6)
inactive: [1] -0.038 | [2] 0.025 | [3] -0.021 | [4] 0.019 | entinostat -0.005 | vorinostat -0.02 | citarinostat 0.006 | silmitasertib 0.041 | [5] -0.001 | [6] -0.093

DDX4 (UniProt Q9NQI0)
active: [1] -1.13
inactive: [2] 0.01 | [3] 0.297 | [4] -0.35 | entinostat -0.405 | vorinostat -0.253 | citarinostat -0.146 | silmitasertib 0.171 | [5] -0.273 | [6] -0.194

DNAH11 (UniProt Q96DT5)
inactive: [1] -0.099 | [2] -0.064 | [3] 0.346 | [4] 0.044 | entinostat -0.032 | vorinostat -0.24 | citarinostat -0.213 | silmitasertib 0.197 | [5] -0.098 | [6] -0.09

DIS3L2 (UniProt Q8IYB7)
inactive: [1] -0.105 | [2] 0.018 | [3] -0.1 | [4] 0.008 | entinostat -0.028 | vorinostat -0.006 | citarinostat 0.037 | silmitasertib 0.007 | [5] -0.04 | [6] -0.102

DHFR (UniProt P00374)
inactive: [1] 0.095 | [2] 0.209 | [4] -0.139 | entinostat -0.02 | vorinostat 0.082 | citarinostat 0.042 | [5] 0.072 | [6] -0.048
active: [3] 0.849 | silmitasertib 0.57

DEGS1 (UniProt O15121)
inactive: [1] -0.101 | [2] 0.249 | [3] 0.086 | [4] -0.169 | entinostat -0.006 | vorinostat 0.077 | citarinostat 0.109 | silmitasertib -0.053 | [5] -0.003 | [6] -0.063

DIABLO (UniProt Q9NR28)
inactive: [1] 0.004 | [2] 0.03 | [3] -0.025 | [4] 0.06 | entinostat 0.015 | vorinostat 0.037 | citarinostat 0.044 | silmitasertib -0.019 | [5] -0.01 | [6] -0.023

DENND4A isoform 2 (UniProt Q7Z401)
inactive: [1] -0.038 | [2] -0.144 | [3] 0.089 | [4] -0.084 | entinostat 0.113 | vorinostat 0.195 | citarinostat 0.281 | silmitasertib 0.101 | [5] -0.038 | [6] -0.21

DERA (UniProt Q9Y315)
inactive: [1] -0.014 | [2] 0.032 | [3] 0.05 | [4] 0.004 | entinostat -0.083 | vorinostat -0.012 | citarinostat 0.039 | silmitasertib -0.072 | [5] -0.026 | [6] -0.043

DLGAP5 (UniProt Q15398)
inactive: [1] -0.034 | [2] -0.128 | [3] -0.095 | [4] -0.024 | entinostat 0.03 | vorinostat 0.049 | citarinostat 0.04 | silmitasertib 0.11 | [5] -0.025 | [6] -0.019

DENND6A (UniProt Q8IWF6)
inactive: [1] -0.055 | [2] -0.165 | [3] -0.05 | [4] -0.031 | entinostat 0.037 | vorinostat 0 | citarinostat -0.077 | silmitasertib 0.1 | [5] -0.028 | [6] -0.11

DFFB (UniProt O76075)
inactive: [1] 0.028 | [2] -0.064 | [3] -0.037 | [4] 0.069 | entinostat 0 | vorinostat 0.016 | citarinostat 0.057 | silmitasertib 0.087 | [5] 0.048 | [6] -0.08

Source: the supplement of paper PMC10849652
